{"source": "PubChem BioAssay AID485314", "about": "(National Center for Advancing Translational Sciences (NCATS), 2010)", "note": "Hit rate of the full screen: of about 340,000 compounds, about 4,500 (1.3%) were called active. Inconclusive means that the source gave no clear call. Such entries were picked first, then a sample of the others. Calls follow the shape of the dose curve; as a rule, active = well fitted inhibition curve with a large enough effect; inconclusive = small, poorly fitted or top-dose-only effect, or another doubt; inactive = no such curve, though single readings can be large or run the other way. Potencies beside an inconclusive call are fits to weak or partial responses and may not hold up."}
{"target": "DNA polymerase beta (Homo sapiens) (UniProt P06746)", "test": "qHTS Assay for Inhibitors of DNA Polymerase Beta; also: potency is read from the fitted curve at half-maximal effect; as to activity change, negative = inhibition: % is scaled to controls: 0 for no effect and ±100 for the full control effect", "settings": "Pol beta primer extension/strand displacement, fluorescence kinetic; activity change, negative = inhibition: at 114 µM (top of the series)", "outline": "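Homogeneous kinetic assay of primer extension and strand displacement by 10 nM Pol beta, preincubated 15 min at room temperature with compound before 50 nM substrate (final) was added. Read at 0 and 10 min; four-parameter Hill fit.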"}
{"compound": "Cc1cc(C)cc(OCC(=O)N2Cc3ccccc3CC2C(=O)O)c1", "note": "(stereo unspecified)", "Potency": "inconclusive: 89.1 µM [inhibitor, single point]"}
{"compound": "COc1ccc(-c2noc(CCC(=O)NCCCN3CCN(c4ccc(F)cc4)CC3)n2)cc1", "Potency": "inconclusive: 89.1 µM [inhibitor, partial curve, poor fit]"}
{"compound": "O=c1cc(-c2ccccc2)nc2nc(SCc3ccccc3)[nH]n12", "Potency": "inconclusive: 70.8 µM [inhibitor, single point]"}
{"compound": "COc1cc(/C=C2\\SC(=S)NC2=O)ccc1OS(=O)(=O)c1ccccc1", "Potency": "inconclusive: 79.4 µM [inhibitor, partial curve, poor fit]"}
{"compound": "O=C(CSc1n[nH]c(-c2ccncc2)n1)c1ccccc1", "Potency": "inactive"}
{"compound": "Cc1ccc(-c2nc3s/c(=C\\c4ccco4)c(=O)n3n2)cc1", "Potency": "active: 28.2 µM"}
{"compound": "Cc1cccc(C)c1NC(=O)Cn1nc(C)c2sc3ccccc3c2c1=O", "Potency": "inactive"}
{"compound": "CCOC(=O)CSc1nc2ccc(NC(=O)c3ccccc3)cc2s1", "Potency": "inconclusive: 100 µM [inhibitor, single point]"}
{"compound": "Cc1nnc(SCc2nnc(-c3ccccc3Br)o2)n1-c1ccccc1", "Potency": "inconclusive: 31.6 µM [inhibitor, full curve]"}
{"compound": "COc1cccc(C(=O)c2cn(CC(=O)Nc3cccc(C)c3C)c3nc(C)ccc3c2=O)c1", "Potency": "inconclusive: 39.8 µM [inhibitor, partial curve]"}
{"compound": "CCCCC(=O)NC1(C(F)(F)F)NC(=O)N(C)C1=O", "note": "(stereo unspecified)", "Potency": "inactive"}
{"compound": "CC(C)Oc1ccc(C(=O)Nc2ccccc2N2CCOCC2)cc1", "Potency": "inconclusive: 31.6 µM [inhibitor, full curve]"}
{"compound": "COc1ccc(C)cc1NCc1cccc(OC)c1OC", "Potency": "inconclusive: 8.91 µM [inhibitor, partial curve]"}
{"compound": "COc1cc(C(=O)/C=C/Nc2ccc(NC(C)=O)cc2)cc(OC)c1OC", "Potency": "active: 70.8 µM"}
{"compound": "COc1ccc(N2CC(NC(=O)c3ccc(S(=O)(=O)N4CCCCC4)cc3)CC2=O)cc1OC", "note": "(stereo unspecified)", "Potency": "inactive"}
{"compound": "CC(=O)c1c(C)[nH]c(C(=O)Nc2cccc(S(=O)(=O)N(C)c3ccccc3)c2)c1C", "Potency": "inconclusive: 39.8 µM [inhibitor, single point]"}
{"compound": "COc1cc(C(=O)NC(=S)Nc2ccccc2N2CCOCC2)cc(OC)c1OC", "activity change, negative = inhibition": "inconclusive: -54.6% [inhibitor]"}
{"compound": "Oc1ccccc1Nc1ncnc2c1oc1ccccc12", "Potency": "inconclusive: 20 µM [inhibitor, full curve, poor fit]"}
{"compound": "O=c1ccc(C(F)(F)F)cn1Cc1cc(=O)n2cc(Br)ccc2n1", "Potency": "active: 12.6 µM"}
{"compound": "CC1CCCCN1S(=O)(=O)c1ccc(N(C(=O)c2cnccn2)C(C(=O)NC2CCCC2)c2cccs2)cc1", "note": "(stereo unspecified)", "Potency": "inconclusive: 89.1 µM [inhibitor, single point]"}
{"compound": "COc1ccc(Cl)cc1-c1nc(SCC(=O)N(C)CCC#N)n[nH]1", "Potency": "inconclusive: 79.4 µM [inhibitor, single point]"}
{"compound": "CC(C)OCCCNC(=O)CNC(=O)c1cccs1", "Potency": "inconclusive: 39.8 µM [inhibitor, partial curve, poor fit]"}
{"compound": "CC1CCN(S(=O)(=O)c2ccc3[nH]c(=O)[nH]c3c2)CC1", "Potency": "inconclusive: 25.1 µM [inhibitor, single point]"}
{"compound": "COc1ccc(NC(=O)c2cc(=O)[nH]c(=O)[nH]2)cc1S(=O)(=O)Nc1ccccc1Cl", "Potency": "inconclusive: 17.8 µM [inhibitor, partial curve, poor fit]"}
{"compound": "O=c1nc(Nc2cccc(Cl)c2)oc2cc(Cl)oc(=O)c12", "Potency": "inconclusive: 39.8 µM [inhibitor, full curve]"}
{"compound": "O=C(N/N=C/c1cccc(O)c1)c1csc2ccccc12", "Potency": "inconclusive: 0.1 µM [inhibitor, full curve, poor fit]"}
{"compound": "O=C(N/N=C(\\c1ccccc1)c1ccccn1)c1cccc([N+](=O)[O-])c1", "Potency": "inconclusive: 89.1 µM [inhibitor, single point]"}
{"compound": "CS(=O)(=O)NCCSCc1ccco1", "Potency": "active: 39.8 µM"}
{"compound": "NNC(=O)c1cc(O)c(O)c(O)c1", "Potency": "active: 3.16 µM"}
{"compound": "O=C(NC1CCCCC1)C(c1ccc2ncccc2c1)N(Cc1ccc2c(c1)OCO2)C(=O)c1ccc2c(c1)OCCO2", "note": "(stereo unspecified)", "Potency": "inconclusive: 39.8 µM [inhibitor, single point]"}
{"compound": "COc1cc(/C=C2/C(C)=C(C#N)c3nc(N)c(C#N)c(C)c32)ccc1OCC(=O)O", "Potency": "inconclusive: 39.8 µM [inhibitor, single point]"}
{"compound": "O=C(CN(c1ccccc1)S(=O)(=O)c1ccccc1)NCCSCc1ccco1", "Potency": "active: 56.2 µM"}
{"compound": "CSc1nc(SCC(=O)O)c2sc3nc(-c4ccccc4)c4c(c3c2n1)CCC4", "Potency": "active: 2.51 µM"}
{"compound": "N/C(=N\\OC(=O)c1ccc([N+](=O)[O-])cc1Cl)c1ccccn1", "Potency": "inconclusive: 5.01 µM [inhibitor, full curve, poor fit]"}
{"compound": "Cc1ccccc1/C=N/Nc1nc2ccccc2[nH]1", "Potency": "inactive"}
{"compound": "COc1ccc(NC(=O)C2CCCN(c3nnc(C)c4c(C)n(-c5ccccc5)nc34)C2)cc1Cl", "note": "(stereo unspecified)", "Potency": "active: 70.8 µM"}
{"compound": "COc1ccccc1-n1c(SCC(=O)NCc2ccc3c(c2)OCO3)nc2cc([N+](=O)[O-])ccc21", "Potency": "inconclusive: 12.6 µM [inhibitor, full curve, poor fit]"}
{"compound": "COc1ccc(CCNc2c3ccccc3nc3ccccc23)cc1OC", "Potency": "active: 6.31 µM"}
{"compound": "Cc1ccc2nc(N(CCCN(C)C)C(=O)c3ccc(S(=O)(=O)N(C)C)cc3)sc2c1", "Potency": "inconclusive: 89.1 µM [inhibitor, single point]"}
{"compound": "O=C(COC(=O)c1cccc(S(=O)(=O)N2CCN(c3ccccc3)CC2)c1)NCc1ccco1", "Potency": "active: 20 µM"}
{"compound": "Cc1ccc(C(=O)OCC(=O)c2c[nH]c3ccccc23)cc1S(=O)(=O)N1CCCCC1", "Potency": "inconclusive: 70.8 µM [inhibitor, partial curve]"}
{"compound": "Cc1ccc(C(=O)NCCSc2c(C)[nH]c3ccccc23)cc1[N+](=O)[O-]", "Potency": "inconclusive: 79.4 µM [inhibitor, single point]"}
{"compound": "O=C(CSc1nc(-c2ccc(F)cc2)[nH]c1-c1ccc(F)cc1)Nc1ccc2c(c1)OCCO2", "Potency": "inconclusive: 0.631 µM [inhibitor, full curve]"}
{"compound": "COc1ccccc1S(=O)(=O)Cc1ccc(C(=O)NCc2ccc(C)cc2)o1", "activity change, negative = inhibition": "inconclusive: -38.2% [inhibitor]"}
{"compound": "COc1ccccc1N(CC(=O)Nc1c(C)cccc1C)S(C)(=O)=O", "Potency": "inconclusive: 0.141 µM [inhibitor, full curve, poor fit]"}
{"compound": "CC1CCCN(c2nc3c(c(=O)n(C)c(=O)n3C)n2CCSc2nc3ccccc3o2)C1", "note": "(stereo unspecified)", "Potency": "inconclusive: 79.4 µM [inhibitor, single point]"}
{"compound": "O=C(Nc1ccc2oc(-c3cccnc3)nc2c1)c1ccc2c(c1)OCCO2", "Potency": "active: 14.1 µM"}
{"compound": "COc1ccc(S(=O)(=O)NCC(c2ccc(N(C)C)cc2)N2CCc3ccccc32)cc1OC", "note": "(stereo unspecified)", "Potency": "inactive"}
{"compound": "Nc1nc(SCC(=O)Nc2ccccc2)[nH]c(=O)c1NC(=O)c1cccs1", "Potency": "inconclusive: 89.1 µM [inhibitor, single point]"}
{"compound": "COc1ccc(S(=O)(=O)N(C)CC(=O)N2CCC(C(N)=O)CC2)cc1", "Potency": "inconclusive: 3.16 µM [inhibitor, partial curve, poor fit]"}
{"compound": "CCOc1ccc(NC(=O)C2CCCN(C(=O)NCc3ccccc3)C2)cc1", "note": "(stereo unspecified)", "Potency": "inconclusive: 28.2 µM [inhibitor, full curve, poor fit]"}
{"compound": "O=C1c2ccccc2-c2cccc(C(=O)N3CCN(C(=O)c4ccccc4)CC3)c21", "Potency": "inconclusive: 0.398 µM [inhibitor, full curve, poor fit]"}
{"compound": "O=C(Cc1cccs1)N/N=C/C(Br)=C/c1ccccc1", "Potency": "inconclusive: 89.1 µM [inhibitor, single point]"}
{"compound": "Cc1nnc(N2C(=O)c3oc4ccccc4c(=O)c3C2c2ccc(Cl)cc2)s1", "note": "(stereo unspecified)", "Potency": "inactive"}
{"compound": "CN(C(=O)c1cccc(C#N)c1)c1nnc(C2CCCO2)s1", "note": "(stereo unspecified)", "Potency": "inconclusive: 39.8 µM [inhibitor, single point]"}
{"compound": "O=[N+]([O-])c1cc2c(cc1CN1CCN(CCOCCO)CC1)OCO2", "Potency": "inactive"}
{"compound": "CC(=O)N1CCCN(Cc2cn(-c3ccc(C)cc3)nc2-c2ccc(F)cc2)CC1", "Potency": "inconclusive: 1 µM [inhibitor, full curve, poor fit]"}
{"compound": "O=C(c1ccc2c(c1)CCN2S(=O)(=O)c1ccc(Cl)cc1)N1CCN(c2ccc(F)cc2)CC1", "Potency": "inactive"}
{"compound": "COc1ccc(/C=C2\\SC(=S)N(CCC(=O)N3CCCCC3CCO)C2=O)cc1", "note": "(stereo unspecified)", "activity change, negative = inhibition": "inconclusive: -96.5% [inhibitor]"}
{"compound": "CCOC(=O)CNC(=O)N1[C@H](c2cccs2)[C@@H](C)C(=O)[C@@H](C)[C@@H]1c1cccs1", "Potency": "inactive"}
{"compound": "O=C(Nc1ccc(-c2csc(Nc3ccc(Cl)cc3)n2)cc1)c1cc([N+](=O)[O-])cc(C(F)(F)F)c1", "Potency": "inconclusive: 79.4 µM [inhibitor, partial curve]"}
{"compound": "CCN1C(=O)N(C)[C@@H](c2ccccc2)C(C(=O)OC)=C1C", "activity change, negative = inhibition": "inconclusive: -30.1% [inhibitor]"}
{"compound": "Cc1ccc(-c2nnc(Nc3ccc4c(c3)OCO4)c3ccccc23)cc1S(N)(=O)=O", "Potency": "inconclusive: 89.1 µM [inhibitor, single point]"}
{"compound": "COc1ccc(Nc2c(-c3ccc(C)o3)nc3cc(C)ccn23)cc1", "Potency": "inactive"}
{"compound": "CCCCNC(=S)N/N=C1\\C(=O)c2cccc3cccc1c23", "Potency": "inconclusive: 3.55 µM [inhibitor, full curve]"}
{"compound": "Cc1ccc(NC(=O)C2CCN(c3nnc(C)c4c(C)n(-c5ccccc5)nc34)CC2)c(Cl)c1", "Potency": "inconclusive: 7.94 µM [inhibitor, partial curve]"}
